Measured values: paper PMC1868777
Read-outs that look alike come from different tables or passages of the source. These are yes or no findings as the source states them, for the method shown. In cells and extracts the contact can be indirect. Here binding means that the protein was enriched with, or labelled near, the bait; the list need not be complete.

The chains behind the UniProt entries cited, without tags or fusion partners. Where a name states a change or a piece, a line headed by the entry shows the natural chain unless it says otherwise.
UniProt Q9VM45: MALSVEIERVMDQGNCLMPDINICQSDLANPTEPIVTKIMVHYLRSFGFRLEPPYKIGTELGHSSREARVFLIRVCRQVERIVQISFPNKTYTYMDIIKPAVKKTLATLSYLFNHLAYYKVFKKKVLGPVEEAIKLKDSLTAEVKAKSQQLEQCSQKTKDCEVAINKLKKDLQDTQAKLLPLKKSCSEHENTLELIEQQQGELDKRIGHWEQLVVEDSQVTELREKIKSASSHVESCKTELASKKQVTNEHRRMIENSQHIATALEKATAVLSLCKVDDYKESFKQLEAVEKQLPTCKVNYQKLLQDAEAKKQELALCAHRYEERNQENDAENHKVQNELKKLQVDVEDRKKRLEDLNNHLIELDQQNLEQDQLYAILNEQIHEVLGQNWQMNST
UniProt Q9VYB1: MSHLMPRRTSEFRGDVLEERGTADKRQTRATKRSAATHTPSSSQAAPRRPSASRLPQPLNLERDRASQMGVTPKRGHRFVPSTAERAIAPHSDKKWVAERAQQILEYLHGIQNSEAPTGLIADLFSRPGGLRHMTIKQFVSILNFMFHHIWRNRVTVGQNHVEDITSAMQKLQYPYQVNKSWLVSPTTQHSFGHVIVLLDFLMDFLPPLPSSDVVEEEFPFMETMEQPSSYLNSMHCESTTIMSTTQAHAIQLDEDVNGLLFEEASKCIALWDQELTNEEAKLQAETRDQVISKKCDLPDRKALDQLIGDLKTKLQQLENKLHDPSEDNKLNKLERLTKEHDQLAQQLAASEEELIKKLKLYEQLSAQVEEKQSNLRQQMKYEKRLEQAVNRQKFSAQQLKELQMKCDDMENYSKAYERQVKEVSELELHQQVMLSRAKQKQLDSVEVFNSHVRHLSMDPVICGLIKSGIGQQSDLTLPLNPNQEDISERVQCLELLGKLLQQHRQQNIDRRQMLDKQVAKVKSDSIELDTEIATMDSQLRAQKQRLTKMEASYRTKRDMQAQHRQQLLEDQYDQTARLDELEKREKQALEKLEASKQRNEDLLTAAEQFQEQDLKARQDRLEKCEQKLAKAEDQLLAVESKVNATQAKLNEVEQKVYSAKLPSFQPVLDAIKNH
UniProt Q7JZC9: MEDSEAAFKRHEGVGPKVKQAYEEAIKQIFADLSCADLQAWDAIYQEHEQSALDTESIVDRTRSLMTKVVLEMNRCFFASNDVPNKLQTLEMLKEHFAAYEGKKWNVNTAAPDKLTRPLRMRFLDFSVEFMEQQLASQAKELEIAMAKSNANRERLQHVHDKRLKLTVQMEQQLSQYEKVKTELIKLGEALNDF
UniProt Q9VS01: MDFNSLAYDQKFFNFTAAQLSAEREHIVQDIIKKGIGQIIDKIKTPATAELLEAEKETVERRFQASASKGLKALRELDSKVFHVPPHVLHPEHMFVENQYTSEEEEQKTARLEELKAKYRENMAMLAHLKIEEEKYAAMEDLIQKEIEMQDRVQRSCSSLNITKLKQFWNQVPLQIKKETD
UniProt P45889: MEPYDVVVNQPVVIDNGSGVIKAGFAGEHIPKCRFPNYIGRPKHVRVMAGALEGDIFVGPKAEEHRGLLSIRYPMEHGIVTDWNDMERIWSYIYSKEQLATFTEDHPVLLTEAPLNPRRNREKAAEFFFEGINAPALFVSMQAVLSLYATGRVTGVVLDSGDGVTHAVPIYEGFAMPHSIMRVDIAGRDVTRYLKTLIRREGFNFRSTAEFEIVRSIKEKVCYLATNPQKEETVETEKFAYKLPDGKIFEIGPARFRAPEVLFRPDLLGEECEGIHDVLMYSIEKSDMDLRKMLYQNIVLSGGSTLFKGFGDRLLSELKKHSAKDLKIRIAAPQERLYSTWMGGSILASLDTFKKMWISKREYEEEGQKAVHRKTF
UniProt Q9VWS1: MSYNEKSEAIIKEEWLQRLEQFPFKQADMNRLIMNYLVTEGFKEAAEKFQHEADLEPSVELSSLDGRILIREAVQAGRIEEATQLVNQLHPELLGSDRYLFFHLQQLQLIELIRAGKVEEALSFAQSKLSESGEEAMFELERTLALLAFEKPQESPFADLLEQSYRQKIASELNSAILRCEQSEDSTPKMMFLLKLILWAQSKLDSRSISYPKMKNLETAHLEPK
UniProt Q9W2N0: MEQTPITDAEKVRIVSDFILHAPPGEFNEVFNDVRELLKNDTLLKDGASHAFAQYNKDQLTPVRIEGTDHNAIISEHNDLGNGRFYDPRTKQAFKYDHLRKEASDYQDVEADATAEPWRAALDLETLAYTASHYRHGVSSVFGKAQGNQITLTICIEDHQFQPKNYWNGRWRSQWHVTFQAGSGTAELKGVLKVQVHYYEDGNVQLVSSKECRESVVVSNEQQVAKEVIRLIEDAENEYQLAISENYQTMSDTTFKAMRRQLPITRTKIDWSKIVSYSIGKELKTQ
UniProt Q9XYZ5: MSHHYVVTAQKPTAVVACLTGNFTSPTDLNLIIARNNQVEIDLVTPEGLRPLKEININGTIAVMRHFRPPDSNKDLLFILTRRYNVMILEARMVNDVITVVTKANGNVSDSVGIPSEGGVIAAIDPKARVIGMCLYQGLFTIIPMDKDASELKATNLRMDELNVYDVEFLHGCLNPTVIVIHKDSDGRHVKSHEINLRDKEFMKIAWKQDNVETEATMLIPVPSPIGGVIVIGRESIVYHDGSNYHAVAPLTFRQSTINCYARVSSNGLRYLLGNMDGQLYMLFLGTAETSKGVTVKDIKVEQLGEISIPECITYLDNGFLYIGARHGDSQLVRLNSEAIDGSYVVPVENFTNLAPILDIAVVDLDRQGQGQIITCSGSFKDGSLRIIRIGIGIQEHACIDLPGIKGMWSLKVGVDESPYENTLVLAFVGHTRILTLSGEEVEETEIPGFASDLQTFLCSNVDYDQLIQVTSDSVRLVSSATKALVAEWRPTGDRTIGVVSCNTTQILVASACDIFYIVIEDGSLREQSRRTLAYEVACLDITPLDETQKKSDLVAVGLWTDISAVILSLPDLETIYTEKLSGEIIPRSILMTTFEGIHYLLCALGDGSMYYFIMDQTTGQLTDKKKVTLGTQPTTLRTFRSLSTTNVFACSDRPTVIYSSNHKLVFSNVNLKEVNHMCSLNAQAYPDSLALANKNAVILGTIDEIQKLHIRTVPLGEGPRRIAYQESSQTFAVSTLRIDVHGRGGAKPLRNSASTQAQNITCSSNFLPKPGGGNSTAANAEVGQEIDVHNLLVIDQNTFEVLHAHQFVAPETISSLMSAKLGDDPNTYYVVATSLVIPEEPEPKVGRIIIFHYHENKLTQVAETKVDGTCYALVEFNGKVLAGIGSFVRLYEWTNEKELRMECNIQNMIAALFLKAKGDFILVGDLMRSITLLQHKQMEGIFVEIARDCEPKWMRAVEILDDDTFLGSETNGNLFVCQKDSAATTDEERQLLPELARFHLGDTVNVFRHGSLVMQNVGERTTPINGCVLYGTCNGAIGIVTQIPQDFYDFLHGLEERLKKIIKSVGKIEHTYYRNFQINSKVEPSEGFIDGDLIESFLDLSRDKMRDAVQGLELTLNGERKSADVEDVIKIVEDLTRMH
UniProt Q9VCU6: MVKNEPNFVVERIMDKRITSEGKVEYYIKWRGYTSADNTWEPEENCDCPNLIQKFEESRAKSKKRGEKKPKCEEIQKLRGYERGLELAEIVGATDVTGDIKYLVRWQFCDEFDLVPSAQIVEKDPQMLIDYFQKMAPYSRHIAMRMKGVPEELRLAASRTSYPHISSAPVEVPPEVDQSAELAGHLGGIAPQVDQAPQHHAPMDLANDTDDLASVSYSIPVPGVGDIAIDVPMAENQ
UniProt Q8IPW3: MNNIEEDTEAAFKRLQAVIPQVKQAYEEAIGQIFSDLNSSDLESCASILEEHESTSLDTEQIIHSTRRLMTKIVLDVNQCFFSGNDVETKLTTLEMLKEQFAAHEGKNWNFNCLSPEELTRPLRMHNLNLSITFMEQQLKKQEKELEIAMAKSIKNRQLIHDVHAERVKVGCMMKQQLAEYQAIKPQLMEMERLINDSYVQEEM
UniProt Q9VYX4: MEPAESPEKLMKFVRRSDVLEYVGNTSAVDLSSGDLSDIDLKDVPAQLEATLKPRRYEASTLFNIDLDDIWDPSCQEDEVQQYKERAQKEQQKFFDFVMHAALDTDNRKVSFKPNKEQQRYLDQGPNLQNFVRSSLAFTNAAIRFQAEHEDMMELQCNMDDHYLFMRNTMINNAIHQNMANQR
UniProt Q9VPB2: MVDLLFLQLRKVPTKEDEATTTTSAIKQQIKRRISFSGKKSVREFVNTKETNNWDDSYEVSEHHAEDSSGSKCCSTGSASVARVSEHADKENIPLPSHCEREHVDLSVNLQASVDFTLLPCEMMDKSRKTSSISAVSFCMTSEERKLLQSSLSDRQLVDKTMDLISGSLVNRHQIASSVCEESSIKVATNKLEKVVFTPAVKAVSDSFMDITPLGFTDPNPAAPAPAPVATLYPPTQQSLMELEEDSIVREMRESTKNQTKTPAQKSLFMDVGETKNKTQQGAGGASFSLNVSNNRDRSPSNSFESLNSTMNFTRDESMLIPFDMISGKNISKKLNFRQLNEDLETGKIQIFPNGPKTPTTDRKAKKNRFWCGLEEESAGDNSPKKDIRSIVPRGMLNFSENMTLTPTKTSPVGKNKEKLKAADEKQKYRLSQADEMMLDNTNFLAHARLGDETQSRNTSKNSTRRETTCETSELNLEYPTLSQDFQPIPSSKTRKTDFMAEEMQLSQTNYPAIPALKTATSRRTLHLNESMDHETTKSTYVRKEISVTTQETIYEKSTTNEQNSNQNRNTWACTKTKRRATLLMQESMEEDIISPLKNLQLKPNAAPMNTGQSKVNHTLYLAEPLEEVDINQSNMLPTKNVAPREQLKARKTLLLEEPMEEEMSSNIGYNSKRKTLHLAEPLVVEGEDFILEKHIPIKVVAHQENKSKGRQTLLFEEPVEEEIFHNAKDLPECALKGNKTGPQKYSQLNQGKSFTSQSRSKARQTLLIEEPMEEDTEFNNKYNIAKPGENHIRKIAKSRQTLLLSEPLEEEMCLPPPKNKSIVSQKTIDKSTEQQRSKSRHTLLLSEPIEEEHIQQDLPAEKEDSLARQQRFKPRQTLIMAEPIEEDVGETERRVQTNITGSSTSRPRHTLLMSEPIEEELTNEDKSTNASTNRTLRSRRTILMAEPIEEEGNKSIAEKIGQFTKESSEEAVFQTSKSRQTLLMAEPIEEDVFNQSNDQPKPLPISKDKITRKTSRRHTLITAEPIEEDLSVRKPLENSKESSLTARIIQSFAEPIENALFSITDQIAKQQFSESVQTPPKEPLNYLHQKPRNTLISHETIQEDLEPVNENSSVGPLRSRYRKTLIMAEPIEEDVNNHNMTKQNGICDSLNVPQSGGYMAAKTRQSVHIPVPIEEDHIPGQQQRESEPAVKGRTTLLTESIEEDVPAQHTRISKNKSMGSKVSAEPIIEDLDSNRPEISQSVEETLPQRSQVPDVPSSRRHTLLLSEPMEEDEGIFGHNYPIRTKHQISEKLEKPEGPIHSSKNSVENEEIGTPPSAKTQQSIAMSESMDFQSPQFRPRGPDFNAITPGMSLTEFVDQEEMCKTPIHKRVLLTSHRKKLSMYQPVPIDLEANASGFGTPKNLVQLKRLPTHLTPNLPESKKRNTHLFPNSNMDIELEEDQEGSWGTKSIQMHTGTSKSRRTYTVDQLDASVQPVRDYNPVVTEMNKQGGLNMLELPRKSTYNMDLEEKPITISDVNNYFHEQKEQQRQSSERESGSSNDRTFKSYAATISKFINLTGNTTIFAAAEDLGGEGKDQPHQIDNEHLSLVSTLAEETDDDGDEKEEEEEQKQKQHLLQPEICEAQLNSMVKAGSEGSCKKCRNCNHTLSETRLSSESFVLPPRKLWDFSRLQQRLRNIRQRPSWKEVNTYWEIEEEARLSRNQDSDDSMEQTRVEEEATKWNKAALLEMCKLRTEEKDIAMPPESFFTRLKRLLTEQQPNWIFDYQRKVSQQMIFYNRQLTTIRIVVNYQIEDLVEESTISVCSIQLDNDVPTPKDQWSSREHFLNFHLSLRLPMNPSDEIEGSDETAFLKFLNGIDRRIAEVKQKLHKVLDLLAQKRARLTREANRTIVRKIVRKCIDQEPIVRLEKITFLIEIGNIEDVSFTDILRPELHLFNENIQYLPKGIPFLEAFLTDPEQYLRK

Experiments:
Test in all cases: affinity purification with mass spectrometry; Protein A- or TAP-tagged bait stably expressed in D-mel cells; whole cell extracts of asynchronous cultures; single step on Dynabeads with rabbit IgG, 2-4 hours; buffer A (75 mM HEPES pH7.5, 150 mM KCl, 1.5 mM EGTA, 1.5 mM MgCl2, 7.5% glycerol, 0.1% NP40, Benzonase), six washes; elution with 1 M NH4OH; SDS-PAGE bands analysed by LC-MS/MS (MASCOT)
[1] = target: dmNuf2-PrA (Drosophila melanogaster) (UniProt Q9VM45)
[2] = target: Protein A::dmNdc80 (Drosophila melanogaster) (UniProt Q9VYB1)
[3] = target: dmNnf1R-2::protein A (Drosophila melanogaster) (UniProt Q7JZC9)
[4] = target: dmMis12-PrA (Drosophila melanogaster) (UniProt Q9VS01)
[5] = target: Protein A::dmNdc80 (Drosophila melanogaster) (UniProt Q9VYB1); remark: listed apart in the source
[6] = target: dmNuf2-PrA (Drosophila melanogaster) (UniProt Q9VM45); remark: listed apart in the source
[7] = target: dmMis12-PrA (Drosophila melanogaster) (UniProt Q9VS01); remark: listed apart in the source
[8] = target: dmNnf1R-2::protein A (Drosophila melanogaster) (UniProt Q7JZC9); remark: listed apart in the source

| binding [1] | binding [2] | binding [4] | Molecule | further results |
| --- | --- | --- | --- | --- |
| binds |  |  | Arp87C (from UniProt P45889 1-376) |  |
|  | binds |  | CG6617 (from UniProt Q9VWS1) |  |
|  | binds |  | CG10540 (from UniProt Q9W2N0 1-286) |  |
|  | binds |  | DDB-1 (from UniProt Q9XYZ5 1-1140) | binding [3]: binds |
| binds | binds | binds | DDP1 (from UniProt A1ZB76) |  |
|  | binds |  | HP1c (from UniProt Q9VCU6) |  |
|  |  | binds | Rod (from UniProt Q9V9W7) | binding [3]: binds |
| binds |  | binds | dmNdc80 (from UniProt Q9VYB1) |  |
| binds | binds | binds | dmNnf1R-1 (from UniProt Q8IPW3) |  |
| binds | binds | binds | dmNnf1R-2 (from UniProt Q7JZC9) |  |
| binds | binds | binds | dmNsl1R (from UniProt Q9VYX4) |  |
|  | binds | binds | dmNuf2 (from UniProt Q9VM45) |  |
| binds | binds | binds | dmSpc105R (from UniProt Q9VPB2) |  |
|  |  |  | CG7611 (protein, UniProt Q7K0L4 1-630) MQSTSSTSSGSCSRPLEGSTLNSGGSAENVARDGGSGDDSVGIGDENPSGSSAATNGHDSKHNGFIVNNNGSSSRIVDGENNRENTSCSGVQLDKSNQEIIRLIGQYLHDVGLDKSVQTLMLESGCYLEHPSATKFREHVLMGDWSKADSDLKDLEPLIDNGKLATITEMKFILLEQKYLEHLDDGNPLDALHVLRSELTPLQHNITRVHQLSSYMMCSTNQDLYQRAKWEGKGILSRALVMERLQTFMPPSVMMSPRRLRTLLQQAVELQSQHCPCHDMAWETNLETVSLLTDHCCTTDGFPMQTIQILTDHCDEVWFCKFSPDGLKLATGSKDSTVIIWDVDPYKLTLKHRRVLDGQAQLSVSFVSWSPDSKLILVGGTEDSHELYIWNVDDGKLVVKFSQSLEDSLACGAFSRDGARFVCGGQKGQLYLCDLNGTIVDSWEGVRVNSIAFRADNKTILAADNHYRIRGYNFDSPRSDFDILREPHPIMTFSINSADRLALLNVSNQGLHLWDIEDKCLVRRFQGIRQSNFAIHSCFGGVNESFVASGSEDKVVYIWHIKREEPLAKLAGHTKTVNCVSWNPVYPSLLASASDDATVRIWGPKPNGSSATTESDDCSSSSSSSSWNMT | binding [5]: binds; binding [6]: binds |
|  |  |  | FKBP39 (protein, UniProt P54397 1-357) MSMFWGLNMKPERKYSQTIIKSFHISGVALDKGQEAKLYLAAEKQEYIVATVTKAIPQVALDLNFSKGDRIMFYTAGDASVSLLGYLHDIDSEDDEDDDQMTIENLLNSKAIKNSKKSEDDEDENESGEEDEEDTDDDSQIIEEYESFLENGEEEDDDDVDEDNEESGEEDEQDSDDSEAEEEQPKAKVAKLSPGASAKKSGKEQNGVAKKEEAKQQQKKKEKPEAKKEQPKAKEPAKQQPASKDPRTITGGVKIVDQVVGKGEEAKQGKRVSVYYIGRLQSNNKTFDSLLKGKPFKFALGGGEVIKGWDVGVAGMKVGGKRVITCPPHMAYGARGAPPKIGPNSTLVFEVELKAVH | binding [5]: binds; binding [7]: binds; binding [6]: binds |
|  |  |  | dmSpc25R/Mitch (protein, UniProt Q9V3V7 1-222) MAIIMTESSYERRVKALYEKQIHMEALEAKFIKKVFKFNSNLLDVKEAASRHQRKVGKLQKVLMERREELDKRVSFIEELDRELEATKLHNLAMKDWFKQQKMLAKQRKNEIMESIHTLSKTTRTYINQEALPARVKGVTVLRGDKRDQLIPFDLKATDVEGLDSLCQHLESLNVDVAQWQQLISLAMDMAMESRAPTTPPKEADNCKSIIEIDLTSPMSHT | binding [7]: binds; binding [6]: binds |
|  |  |  | ZW10 (protein, UniProt Q9W4X9 1-721) MEEEAPRFNVLEEAFNGNGNGCANVEATQSAILKVLTRVNRFQMRVRKHIEDNYTEFLPNNTSPDIFLEESGSLNREIHDMLENLGSEGLDALDEANVKMAGNGRQLREILLGLGVSEHVLRIDELFQCVEEAKATKDYLVLLDLVGRLRAFIYGDDSVDGDAQVATPEVRRIFKALECYETIKVKYHVQAYMLQQSLQERFDRLVQLQCKSFPTSRCVTLQVSRDQTQLQDIVQALFQEPYNPARLCEFLLDNCIEPVIMRPVMADYSEEADGGTYVRLSLSYATKEPSSAHVRPNYKQVLENLRLLLHTLAGINCSVSRDQHVFGIIGDHVKDKMLKLLVDECLIPAVPESTEEYQTSTLCEDVAQLEQLLVDSFIINPEQDRALGQFVEKYETYYRNRMYRRVLETAREIIQRDLQDMVLVAPNNHSAEVANDPFLFPRCMISKSAQDFVKLMDRILRQPTDKLGDQEADPIAGVISIMLHTYINEVPKVHRKLLESIPQQAVLFHNNCMFFTHWVAQHANKGIESLAALAKTLQATGQQHFRVQVDYQSSILMGIMQEFEFESTHTLGSGPLKLVRQCLRQLELLKNVWANVLPETVYNATFCELINTFVAELIRRVFTLRDISAQMACELSDLIDVVLQRAPTLFREPNEVVQVLSWLKLQQLKAMLNASLMEITELWGDGVGPLTASYKSDEIKHLIRALFQDTDWRAKAITQIV | binding [5]: binds; binding [8]: binds |
|  |  |  | Topoisomerase II (protein, UniProt P15348 1-1447) MENGNKALSIEQMYQKKSQLEHILLRPDSYIGSVEFTKELMWVYDNSQNRMVQKEISFVPGLYKIFDEILVNAADNKQRDKSMNTIKIDIDPERNMVSVWNNGQGIPVTMHKEQKMYVPTMIFGHLLTSSNYNDDEKKVTGGRNGYGAKLCNIFSTSFTVETATREYKKSFKQTWGNNMGKASDVQIKDFNGTDYTRITFSPDLAKFKMDRLDEDIVALMSRRAYDVAASSKGVSVFLNGNKLGVRNFKDYIDLHIKNTDDDSGPPIKIVHEVANERWEVACCPSDRGFQQVSFVNSIATYKGGRHVDHVVDNLIKQLLEVLKKKNKGGINIKPFQVRNHLWVFVNCLIENPTFDSQTKENMTLQQKGFGSKCTLSEKFINNMSKSGIVESVLAWAKFKAQNDIAKTGGRKSSKIKGIPKLEDANEAGGKNSIKCTLILTEGDSAKSLAVSGLGVIGRDLYGVFPLRGKLLNVREANFKQLSENAEINNLCKIIGLQYKKKYLTEDDLKTLRYGKVMIMTDQDQDGSHIKGLLINFIHTNWPELLRLPFLEEFITPIVKATKKNEELSFYSLPEFEEWKNDTANHHTYNIKYYKGLGTSTSKEAKEYFQDMDRHRILFKYDGSVDDESIVMAFSKKHIESRKVWLTNHMDEVKRRKELGLPERYLYTKGTKSITYADFINLELVLFSNADNERSIPSLVDGLKPGQRKVMFTCFKRNDKREVKVAQLSGSVAEMSAYHHGEVSLQMTIVNLAQNFVGANNINLLEPRGQFGTRLSGGKDCASARYIFTIMSPLTRLIYHPLDDPLLDYQVDDGQKIEPLWYLPIIPMVLVNGAEGIGTGWSTKISNYNPREIMKNLRKMINGQEPSVMHPWYKNFLGRMEYVSDGRYIQTGNIQILSGNRLEISELPVGVWTQNYKENVLEPLSNGTEKVKGIISEYREYHTDTTVRFVISFAPGEFERIHAEEGGFYRVFKLTTTLSTNQMHAFDQNNCLRRFPTAIDILKEYYKLRREYYARRRDFLVGQLTAQADRLSDQARFILEKCEKKLVVENKQRKAMCDELLKRGYRPDPVKEWQRRIKMEDAEQADEEDEEEEEAAPSVSSKAKKEKEVDPEKAFKKLTDVKKFDYLLGMSMWMLTEEKKNELLKQRDTKLSELESLRKKTPEMLWLDDLDALESKLNEVEEKERAEEQGINLKTAKALKGQKSASAKGRKVKSMGGGAGAGDVFPDPDGEPVEFKITEEIIKKMAAAAKVAQAAKEPKKPKEPKEPKVKKEPKGKQIKAEPDASGDEVDEFDAMVEGGSKTSPKAKKAVVKKEPGEKKPRQKKENGGGLKQSKIDFSKAKAKKSDDDVEEVTPRAERPGRRQASKKIDYSSLFSDEEEDGGNVGSDDDGNASDDDSPKRPAKRGREDESSGGAKKKAPPKKRRAVIESDDDDIEIDEDDDDDSDFNC | binding [5]: binds |
